Results deposited as PubChem BioAssay AID686943 (Drosophila RNAi Screening Center, 2013).

- Screen: 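Knockdowns that increase or decrease active ERK after insulin receptor stimulation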 (primary screen)
- Cell system: Drosophila S2R+ haemocyte-like cells expressing YFP-tagged ERK (Rolled)
- Reagent: long dsRNA against Drosophila genes
- Conditions: insulin stimulation versus unstimulated cells; dose and duration not given
- Detection: 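Per-plate z-scores of phospho-ERK immunostaining normalised to YFP-tagged ERK, measured with and without insulin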
- Direction: replicate 1, z-score of dpERK with insulin and replicate 2, z-score of dpERK with insulin: higher = more active ERK per ERK-YFP after insulin; replicate 1, z-score of dpERK under basal conditions: higher = more basal active ERK per ERK-YFP; replicate 1, z-score of ERK-YFP with insulin: higher = more YFP-tagged ERK signal
The screen tested about 23,000 reagents; shown is a random part of those with a known target gene and a result. 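Extra replicates exist only for a retested subset of genes; insulin dose and duration not given; both raised and lowered dpERK matter.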 The numbers tell different reagents against one gene apart. Names joined by + are all predicted targets of the reagent. Reagent sequences are not shown. Not given: the amount of reagent, the time to read-out.

gene,reagent no.,"replicate 1, z-score of dpERK with insulin","replicate 2, z-score of dpERK with insulin","replicate 1, z-score of dpERK under basal conditions","replicate 1, z-score of ERK-YFP with insulin"
CG32249,1,0.82,0.72,1.28,-0.03
CG32249,2,1.12,0.61,0.32,0.33
CG32249,3,-0.17,-0.41,-0.13,0.27
lobo,1,0.18,-0.2,-1.17,-0.19
lobo,2,-0.09,-0.18,-0.78,-0.37
CG12391,1,-0.33,0.5,0.5,0.38
CG13806,1,0.01,-0.65,-0.08,0.33
CG8910,1,-0.56,-0.41,1.19,0.61
Tcs6 + PIG-P,1,-0.52,-0.51,0.45,0.74
Tcs6 + PIG-P,2,-0.22,-0.04,0.46,0.42
Ugt37C1,1,-0.14,-0.4,0.61,-0.26
CG4853,1,0.49,0.71,0.29,-0.38
CG15483,1,0.09,0.39,-0.14,-0.41
Tsp42Eg,1,-0.49,-0.11,0.4,0.35
CG10553,1,-0.5,-0.05,0.43,0.64
Or85a,1,0,1.09,-0.63,0.17
CG11044,1,-0.85,0.06,-1.53,0.45
Fas1,1,-1.31,-1.68,0.01,0.88
CG15258,1,-1,-0.48,-0.07,1
Sxl,1,-0.15,0.96,1.04,1
Sxl,2,1.1,1.09,0.3,0.22
Sxl,3,-1.93,-3.04,-0.62,0.39
CG33225,1,-0.17,0.83,-0.26,0.28
CG17734,1,0.63,0.19,0.38,-0.22
Edg91,1,0.65,0.37,0.05,-0.42
Dh44,1,0.38,-0.38,0.47,1.15
Dh44,2,0.55,0.12,-0.46,0.49
CG2818,1,-0.09,0,8.73,1.43
Ufd1,1,0.49,-0.4,-0.55,-0.33
Sclp,1,1.82,0.96,-0.25,-0.86
CG42390,1,-0.65,-2.44,-0.75,2.31
CG34425,1,1.2,0.18,-0.08,0.02
CG34425,2,-1.71,0.87,-0.28,0.27
PolD2,1,0.16,-0.25,0.13,0.18
Ugt316A1,1,-0.86,-0.12,0.29,0.03

8 neighbouring entries already listed, for reference:
gene,reagent no.,"replicate 1, z-score of dpERK with insulin","replicate 2, z-score of dpERK with insulin","replicate 1, z-score of dpERK under basal conditions","replicate 1, z-score of ERK-YFP with insulin"
Or85a,1,0,1.09,-0.63,0.17
CG11044,1,-0.85,0.06,-1.53,0.45
Fas1,1,-1.31,-1.68,0.01,0.88
CG15258,1,-1,-0.48,-0.07,1
Sxl,1,-0.15,0.96,1.04,1
Sxl,2,1.1,1.09,0.3,0.22
Sxl,3,-1.93,-3.04,-0.62,0.39
CG33225,1,-0.17,0.83,-0.26,0.28

The list goes on.
gene,reagent no.,"replicate 1, z-score of dpERK with insulin","replicate 2, z-score of dpERK with insulin","replicate 1, z-score of dpERK under basal conditions","replicate 1, z-score of ERK-YFP with insulin"
CG43101,1,-0.89,-1.12,-0.64,-0.15
Gr59a,1,0.04,-0.24,0.93,-0.93
CG15473,1,1.43,0.08,0.14,-0.44
CG5532,1,1.02,-0.16,1.41,1.59
eIF3e,1,-0.63,-1.9,-1.26,-2.03
CR31824,1,-0.64,-0.05,-0.5,1.11
CG2663,1,0.69,1.75,0.74,0.47
cmb,1,-0.23,-0.6,0.99,1.13
CG13443,1,0.23,-0.59,1.27,0.63
CG9411,1,-0.68,-1.42,-0.02,0.02
HIPP1,1,0.77,0.95,0.67,-1.64
Or43b,1,-0.15,-0.22,1.58,0.56
pyx,1,0.12,0.61,0.42,0.09
pyx,2,-1.73,-0.98,0.73,1.17
CG14088,1,-0.94,0.2,0.68,0.66
rost,1,-0.52,-0.02,0.04,0.42
Imp,1,1.42,0.46,2.01,0.62
Imp,2,0.84,0.27,0.48,0.84
Imp,3,-0.41,-0.58,-0.26,-0.41
Imp,4,0.41,-0.01,0.18,-0.76
Rgl,1,2.09,-0.32,0.43,-0.86
CG4073,1,0.36,0.31,-0.53,-0.03
